Reference: article doi:10.1101/2025.11.04.686665
No constants are given. Whether binding was seen depends on the method and setting. In cells and extracts the contact can be indirect. Some binding calls cover weakened binding; strength is not graded here.

Protein sequences, listed by entry. Tags and fused reporters are not part of them.
UniProt Q04206: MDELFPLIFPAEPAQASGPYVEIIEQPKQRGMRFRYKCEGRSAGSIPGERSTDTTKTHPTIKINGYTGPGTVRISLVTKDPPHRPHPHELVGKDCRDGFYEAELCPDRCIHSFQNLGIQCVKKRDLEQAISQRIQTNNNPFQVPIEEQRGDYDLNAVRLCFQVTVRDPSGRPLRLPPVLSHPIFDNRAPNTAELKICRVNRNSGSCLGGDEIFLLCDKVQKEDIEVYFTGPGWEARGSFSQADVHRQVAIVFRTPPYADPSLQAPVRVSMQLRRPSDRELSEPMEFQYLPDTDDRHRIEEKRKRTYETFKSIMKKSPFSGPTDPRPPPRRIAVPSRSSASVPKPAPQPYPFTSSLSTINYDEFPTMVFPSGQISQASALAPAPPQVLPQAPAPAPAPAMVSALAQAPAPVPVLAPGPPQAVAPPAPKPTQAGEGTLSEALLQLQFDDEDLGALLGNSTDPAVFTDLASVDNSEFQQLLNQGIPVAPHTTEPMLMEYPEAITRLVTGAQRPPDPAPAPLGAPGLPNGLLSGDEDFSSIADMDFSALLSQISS
UniProt O15550: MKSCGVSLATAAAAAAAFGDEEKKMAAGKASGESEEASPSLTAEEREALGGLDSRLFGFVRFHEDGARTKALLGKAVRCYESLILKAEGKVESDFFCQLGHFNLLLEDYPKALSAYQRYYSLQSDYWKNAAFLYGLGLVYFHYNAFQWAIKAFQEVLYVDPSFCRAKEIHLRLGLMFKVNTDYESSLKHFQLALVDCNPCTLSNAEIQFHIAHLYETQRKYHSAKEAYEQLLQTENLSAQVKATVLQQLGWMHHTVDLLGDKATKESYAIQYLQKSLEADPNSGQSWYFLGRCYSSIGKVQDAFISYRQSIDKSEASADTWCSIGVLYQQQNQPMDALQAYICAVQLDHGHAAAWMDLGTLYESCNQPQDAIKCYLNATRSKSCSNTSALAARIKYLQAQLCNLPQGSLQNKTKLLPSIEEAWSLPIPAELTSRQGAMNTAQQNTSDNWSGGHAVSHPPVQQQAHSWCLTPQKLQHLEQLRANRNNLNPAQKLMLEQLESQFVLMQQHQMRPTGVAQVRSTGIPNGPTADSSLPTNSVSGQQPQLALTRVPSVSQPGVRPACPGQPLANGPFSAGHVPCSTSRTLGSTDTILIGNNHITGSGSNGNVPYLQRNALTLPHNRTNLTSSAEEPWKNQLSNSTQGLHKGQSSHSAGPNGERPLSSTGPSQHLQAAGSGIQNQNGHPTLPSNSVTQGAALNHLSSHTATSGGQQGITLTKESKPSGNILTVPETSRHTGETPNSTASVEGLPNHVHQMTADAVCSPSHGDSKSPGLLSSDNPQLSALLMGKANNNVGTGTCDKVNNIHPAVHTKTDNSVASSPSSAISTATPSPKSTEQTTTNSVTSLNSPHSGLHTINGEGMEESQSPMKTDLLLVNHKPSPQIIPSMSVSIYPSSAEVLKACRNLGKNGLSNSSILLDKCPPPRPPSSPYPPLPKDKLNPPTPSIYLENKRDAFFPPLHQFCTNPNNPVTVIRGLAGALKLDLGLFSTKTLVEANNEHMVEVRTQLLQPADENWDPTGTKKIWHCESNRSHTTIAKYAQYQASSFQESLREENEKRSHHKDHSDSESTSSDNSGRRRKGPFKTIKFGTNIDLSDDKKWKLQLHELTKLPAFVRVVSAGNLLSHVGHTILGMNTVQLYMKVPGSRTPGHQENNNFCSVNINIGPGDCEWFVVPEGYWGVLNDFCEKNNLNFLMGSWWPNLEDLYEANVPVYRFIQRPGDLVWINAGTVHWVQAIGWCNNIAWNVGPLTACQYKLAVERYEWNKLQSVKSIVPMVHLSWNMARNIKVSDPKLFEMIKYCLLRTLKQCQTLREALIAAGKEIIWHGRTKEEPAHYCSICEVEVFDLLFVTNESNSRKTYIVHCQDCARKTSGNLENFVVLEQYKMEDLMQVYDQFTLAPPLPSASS
UniProt Q15022: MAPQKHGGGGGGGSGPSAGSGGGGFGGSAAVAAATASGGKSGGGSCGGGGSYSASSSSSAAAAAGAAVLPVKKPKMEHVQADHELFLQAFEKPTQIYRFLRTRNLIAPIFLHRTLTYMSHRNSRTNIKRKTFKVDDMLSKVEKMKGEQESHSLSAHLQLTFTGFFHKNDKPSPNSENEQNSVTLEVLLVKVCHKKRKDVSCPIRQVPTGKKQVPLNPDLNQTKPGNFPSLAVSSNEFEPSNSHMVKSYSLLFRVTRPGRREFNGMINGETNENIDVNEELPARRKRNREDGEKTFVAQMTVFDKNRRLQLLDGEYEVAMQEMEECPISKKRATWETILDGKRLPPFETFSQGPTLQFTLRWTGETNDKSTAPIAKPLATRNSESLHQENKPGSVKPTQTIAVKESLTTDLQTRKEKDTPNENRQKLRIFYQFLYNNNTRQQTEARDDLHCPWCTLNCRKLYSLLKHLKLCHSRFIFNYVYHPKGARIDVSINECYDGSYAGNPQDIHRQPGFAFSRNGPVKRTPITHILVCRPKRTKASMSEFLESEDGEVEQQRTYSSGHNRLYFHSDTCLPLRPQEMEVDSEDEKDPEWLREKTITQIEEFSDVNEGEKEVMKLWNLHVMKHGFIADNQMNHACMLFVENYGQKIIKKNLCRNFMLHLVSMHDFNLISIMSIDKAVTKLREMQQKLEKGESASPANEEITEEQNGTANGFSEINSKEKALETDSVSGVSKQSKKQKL
UniProt P12004: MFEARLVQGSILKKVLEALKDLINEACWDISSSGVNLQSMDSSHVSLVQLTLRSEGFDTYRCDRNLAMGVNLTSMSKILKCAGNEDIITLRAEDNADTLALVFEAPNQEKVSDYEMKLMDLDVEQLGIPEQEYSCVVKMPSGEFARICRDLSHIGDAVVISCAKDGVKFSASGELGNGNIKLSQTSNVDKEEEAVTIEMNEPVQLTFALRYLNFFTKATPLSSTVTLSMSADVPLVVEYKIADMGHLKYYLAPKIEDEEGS

Columns and labels:
[1] = target: NF-KB P65 (human (endogenous in human CRC cells; cell line of the co-IP not named)) (UniProt Q04206); experiment: co-IP
[2] = target: Lysine demethylase 6A (human (endogenous in HCT116)) (UniProt O15550); experiment: co-IP

| Substance | binding [1] | binding [2] |
| --- | --- | --- |
| SUZ12 (from UniProt Q15022 1-739) | binds | – |
| Proliferating cell nuclear antigen (from UniProt P12004 1-261) | – | binds |
